PubChem BioAssay AID1259254 | NCATS, 2017
This is a random part of about 59,000 reagents tested. About 1,550 of all reagents (2.6%) count as active. 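G2 share is only a proxy for re-replication; each gene was hit by three separate siRNAs, and active genes were retested.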 Reagents against one gene are numbered here. Not all columns of the deposit are shown. Not given: the amount of reagent.

- Test: 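Finding genes that stop cells copying their DNA twice in one cycle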 (primary screen)
- System: human HCT116 colorectal cancer cells
- Reagents: single siRNA against human genes
- Time to read-out: 3 days
- Detection: 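Nuclei stained with Hoechst and imaged; cell-cycle phase assigned by DNA content; G2 share scaled per plate, non-targeting siRNA 0%, GMNN siRNA 100%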
- Reading the numbers: G2 robust z-score: higher = more G2 cells, more excess DNA replication
- Hit rule: 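An siRNA counts as active if its G2 robust z-score lies at least 5 MADs above the screen median; here such calls match roughly 38% of GMNN control or more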

CPB1 #1
- G2 robust z-score: 0.88
- call: inactive

CPB1 #2
- G2 robust z-score: 0.158
- call: inactive

CPB1 #3
- G2 robust z-score: -0.541
- call: inactive

ATE1 #1
- G2 robust z-score: -0.316
- call: inactive

ATE1 #2
- G2 robust z-score: 0.441
- call: inactive

ATE1 #3
- G2 robust z-score: 0.0494
- call: inactive

NEFL #1
- G2 robust z-score: 1.42
- call: inactive

NEFL #2
- G2 robust z-score: -0.903
- call: inactive

NEFL #3
- G2 robust z-score: 0.959
- call: inactive

PRUNE1 #1
- G2 robust z-score: -0.385
- call: inactive

PRUNE1 #2
- G2 robust z-score: -0.353
- call: inactive

PRUNE1 #3
- G2 robust z-score: -0.83
- call: inactive

Entries above whose gene name begins with C or c:
CPB1 #1
- G2 robust z-score: 0.88
- call: inactive

CPB1 #2
- G2 robust z-score: 0.158
- call: inactive

CPB1 #3
- G2 robust z-score: -0.541
- call: inactive
